From PMC6925144, “A prospective compound screening contest identified broader inhibitors for Sirtuin 1” (Scientific Reports, 2019)
In all, about 3,200 compounds were measured (“TSA(without NAD+) / Primary screening (TSA) / delta Tm (K)”: median about -0.07, highest 2% from about 0.37 on). The list shows a part of the results.

Protein sequences, listed by entry. Tags and fused reporters are not part of them. Residues count along the entry.
UniProt Q96EB6, 2-747 limits assumed: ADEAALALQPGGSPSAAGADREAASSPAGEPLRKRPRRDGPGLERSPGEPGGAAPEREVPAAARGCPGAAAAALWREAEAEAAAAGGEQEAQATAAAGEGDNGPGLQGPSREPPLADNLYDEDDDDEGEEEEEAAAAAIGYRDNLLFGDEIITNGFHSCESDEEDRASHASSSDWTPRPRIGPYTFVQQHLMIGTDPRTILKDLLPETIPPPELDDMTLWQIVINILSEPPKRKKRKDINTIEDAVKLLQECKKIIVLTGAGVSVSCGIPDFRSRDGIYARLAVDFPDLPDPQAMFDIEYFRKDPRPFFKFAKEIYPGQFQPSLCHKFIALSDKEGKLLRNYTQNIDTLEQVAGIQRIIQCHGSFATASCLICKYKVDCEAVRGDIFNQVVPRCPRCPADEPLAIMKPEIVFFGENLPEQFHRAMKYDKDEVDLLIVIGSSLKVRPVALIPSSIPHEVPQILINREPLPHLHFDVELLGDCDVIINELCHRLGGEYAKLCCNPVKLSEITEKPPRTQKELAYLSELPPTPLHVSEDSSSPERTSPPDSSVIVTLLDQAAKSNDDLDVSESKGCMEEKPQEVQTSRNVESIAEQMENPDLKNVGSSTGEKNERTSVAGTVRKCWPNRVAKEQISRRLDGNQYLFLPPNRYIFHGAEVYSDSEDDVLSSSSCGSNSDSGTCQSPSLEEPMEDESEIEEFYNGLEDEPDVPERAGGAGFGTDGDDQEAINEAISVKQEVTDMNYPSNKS

target: NAD-dependent deacetylase Sirtuin 1 (human, UniProt Q96EB6); assay: primary screen, delta tm; parameters: single well (n = 1); conditions: 10 µM
Method: A total of 3,192 compounds extracted from the proposed lists were first screened by thermal shift assay (TSA), which determined a melting temperature shift (ΔTm) of Sirtuin 1 upon the addition of a test compound at a concentration of 10 µM (n = 1) with primary hit criteria of ΔTm > 0.45 K or ΔTm < −1.5 K. Primary hits (48 compounds) were retested in the same assay at three concentrations (5, 10, 20 µM, n = 4) for hit confirmation and for dose-dependency check. Secondary hits (41 compounds) were checked their selectivity for Sirtuin 1 based on counterscreening on unrelated protein targets (bovine carbonic anhydrase (CA) and recombinant SH2 domain of hABL1 kinase (ABL1)) at three different concentrations (5, 10, 20 µM, n = 4), which yielded 38 hit compounds, hereafter referred to as TSA hits. The TSA screening above was conducted in the absence of NAD+.

SMILES | TSA(without NAD+) / Primary screening (TSA) / delta Tm (K)
CC(C)CC(NC(N)=O)C(=O)NC(Cc1ccccc1)c1nc2ccccc2[nH]1 (stereo not drawn) | -0.17 K
Cc1ccc(-c2nnc(CCC(=O)Nc3cccc(C)c3C)o2)cc1 | -0.04 K
COc1ccc(C=C2C(=O)NC(=S)NC2=O)c2ccccc12 | -0.15 K
CCOc1ccccc1/C=C1/Oc2cc(O)ccc2C1=O | 0.02 K
O=C1CC2(CCCCC2)CC(=O)C1=CNCC1COc2ccccc2O1 (stereo not drawn) | 0.08 K
O=c1[nH]cccc1O | -0.17 K
Cc1sc(NC(=O)N2CCN(Cc3nc(-c4ccc(Cl)cc4)no3)CC2)c(C#N)c1C | 0.12 K
O=C(Nc1ccccc1Oc1ccccc1)C1COc2ccccc2O1 (stereo not drawn) | -0.15 K
CCCOc1cccc(C2C(C(=O)c3cccs3)=C(O)C(=O)N2CCCN2CCOCC2)c1 (stereo not drawn) | 0.07 K
Cc1ccc(N(C)S(=O)(=O)c2cccc(C(=O)Nc3ccccc3C)c2)cc1 | 0.17 K
Cc1ccc(Oc2ccc(NCc3nnc(C4CCC4)o3)cc2)nn1 | -0.03 K
O=C([O-])CP(=O)([O-])C(=O)[O-] | -0.12 K
Cc1nc(C)c(C(C)NC(=O)CSC(=S)N2CCC(C)CC2)s1 (stereo not drawn) | -0.02 K
CCCCOCCN | -0.08 K
N#Cc1cnn(C(=O)C2=NOC(c3ccccc3)C2)c1N (stereo not drawn) | 0.19 K
Cc1nc(C(C)NC(=O)c2ccc[nH]2)sc1C(=O)O (stereo not drawn) | -0.15 K
Cc1ccc(-c2noc(C(C)N3CCN(c4ncnc5cc(Cl)ccc45)CC3)n2)cc1 (stereo not drawn) | -0.02 K
O=C(CCc1cccs1)Nc1ccc(-c2nnc3n2CCCCC3)cc1 | 0.02 K
NC(=O)c1ccc(NC(=O)COC(=O)CCC(=O)c2ccc(Cl)cc2)cc1 | -0.02 K
COc1cc(CN(C)C(=O)Cc2n[nH]c(=O)c3ccccc23)ccc1OCc1ccccc1 | -0.11 K
CCOc1ccc(C2C(C(=O)c3cccs3)=C(O)C(=O)N2CCCN2CCOCC2)cc1OC (stereo not drawn) | -0.17 K
O=C1/C(=C/c2cnn(-c3ccccc3)c2)Oc2cc(O)ccc21 | 1.25 K
COc1cccc(NC(=S)Nc2cccc(S(=O)(=O)N(C)c3ccccc3)c2)c1 | -0.03 K
O=C(NNC(=O)C12CC3CC(CC(C3)C1)C2)c1ccc(NS(=O)(=O)c2ccc3c(c2)OCCO3)cc1 | -0.12 K

SMILES | TSA(without NAD+) / Primary screening (TSA) / delta Tm (K)
COc1ccc(C=C2C(=O)NC(=S)NC2=O)c(OC)c1 | -0.23 K
Cc1nc2c(C(N)=O)ncn2c(C)c1CCC(=O)Nc1ccc(F)c(C(N)=O)c1 | 0.02 K
COc1ccc(C(N)=O)cc1NC(=O)c1nc2nc(C)cc(C)n2n1 | -0.15 K
Cc1cnc2c(S(=O)(=O)N3CCN(CC(=O)Nc4ccccc4OC(F)F)CC3)cccc2c1 | -0.02 K
COc1cc(/C=N/NC(=O)c2cc3c(s2)CCCC3)ccc1OS(=O)(=O)c1cc(C)ccc1C | 0.32 K
CCCCC(NC1=NS(=O)(=O)c2ccccc21)C(=O)NCc1ccc(-c2ccc(O)cc2)cc1 (stereo not drawn) | 0.08 K
Nc1nc(Cl)cc(NC2CCCC2)n1 | -0.17 K
Cc1ccc(C23CC4CC(CC(C(=O)OCC(=O)N5c6ccccc6NC(=O)C5(C)C)(C4)C2)C3)cc1 | 0.06 K
O=C(O)c1ccc2c(c1)C(=O)c1ccccc1-2 | 0.02 K
O=C(O)CC(S)C(=O)O (stereo not drawn) | -0.11 K
CN(CC(=O)Nc1ccc(Cl)c(C(F)(F)F)c1)C(=O)COC(=O)Cc1coc2cc(O)ccc12 | 0.28 K
CC(OC(=O)c1ccc(C(N)=O)cc1)C(=O)N1CCCc2ccccc21 (stereo not drawn) | 0.02 K
O=C(NC(c1ccccc1)c1ccc2[nH]cnc2c1)C1=COCCO1 (stereo not drawn) | 0.03 K
O=C(Nc1ccccc1)C1CCCN1C(=O)Cn1c(SC(F)F)nc2ccccc21 (stereo not drawn) | -0.15 K
C=CCOc1ccc(C(=O)C2=C(O)C(=O)N(CCCN3CCOCC3)C2c2ccco2)cc1 (stereo not drawn) | -0.04 K
O=C(OCC(=O)C12CC3CC(CC(C3)C1)C2)c1ccc2c(c1)C(=O)N(Cc1ccco1)C2=O | 0.15 K
CCNC(=O)NCc1ccc(NC(=O)Cc2cn(CC)c3ccccc23)cc1 | -0.18 K
O=C(COC(=O)C1=COCCO1)Nc1cccc2c1C(=O)c1ccccc1C2=O | 0.07 K
NC(=O)C1CCN(c2nc(CN3CCCCC3)nc3sc4c(c23)CCC4)CC1 | 0.07 K
CN(C)C(=O)Cc1ccc(/N=C/c2cc3ccccc3nc2O)cc1 | -0.17 K
c1ccc(CNc2ncnc3ccsc23)cc1 | 0.08 K
COc1ccc(NC(=O)c2ccc(NC(=O)COC(=O)C34CC5CC(CC(Br)(C5)C3)C4)cc2)cc1 | 1.08 K
O=C(CCn1ccc2ccccc21)NCC(c1ccccc1)N1CCCC1 (stereo not drawn) | -0.13 K
O=C1Nc2ccccc2/C1=C\c1cn(CCOc2ccccc2)c2ccc(Br)cc12 | 0.18 K

A second format for part of the listing above:
CCCCC(NC1=NS(=O)(=O)c2ccccc21)C(=O)NCc1ccc(-c2ccc(O)cc2)cc1 (stereo not drawn)
  TSA(without NAD+) / Primary screening (TSA) / delta Tm (K): 0.08 K
Cc1ccc(C23CC4CC(CC(C(=O)OCC(=O)N5c6ccccc6NC(=O)C5(C)C)(C4)C2)C3)cc1
  TSA(without NAD+) / Primary screening (TSA) / delta Tm (K): 0.06 K
O=C(O)c1ccc2c(c1)C(=O)c1ccccc1-2
  TSA(without NAD+) / Primary screening (TSA) / delta Tm (K): 0.02 K
CN(C)C(=O)Cc1ccc(/N=C/c2cc3ccccc3nc2O)cc1
  TSA(without NAD+) / Primary screening (TSA) / delta Tm (K): -0.17 K

Following part.

SMILES | TSA(without NAD+) / Primary screening (TSA) / delta Tm (K)
O=C1Nc2c(Cl)cc(Cl)cc2C1=O | -0.58 K
C=C(C)CSc1nnc(S)s1 | -0.13 K
c1nc(N2CCCSCC2)c2sccc2n1 | -0.15 K
COc1cc(CN(C)C(=O)c2ccc(N3CCCC3=O)cc2)ccc1OCc1ccccc1 | 0.05 K
O=C(CCCn1c(=O)oc2ccccc21)Nc1cccc(S(=O)(=O)NCc2ccco2)c1 | 0.02 K
COc1ccc(N(C)S(=O)(=O)c2cccc(C(=O)OCc3ccc(C#N)cc3)c2)cc1 | 0.16 K
O=C(CCn1[nH]c(=O)ccc1=O)Nc1nc(SCc2ccccc2)ns1 | -0.12 K
CN(c1cccc(Cl)c1)S(=O)(=O)c1cccc(C(=O)OCc2cc(=O)oc3ccc4ccccc4c23)c1 | 0.17 K
COc1ccc(NC(=O)c2cccc(S(=O)(=O)N(C)c3ccc(OC)cc3)c2)cc1 | 0.03 K
CC(C)C(=O)N1CCCCC1C(=O)NCC1CCCN(Cc2cccs2)C1 (stereo not drawn) | 0.12 K
Cc1ccc2nc(C)c(C(=O)Nc3ccccc3NC(=O)N3CCCC3)cc2c1 | -0.27 K
O=C1NC(=O)c2cc([N+](=O)[O-])ccc21 | -0.15 K
Cc1cc(C(=O)CSc2nncn2-c2ccccc2)c(C)n1C1CC1 | -0.11 K
CCCOc1ccc(C2C(C(=O)c3cccs3)=C(O)C(=O)N2CCCN2CCOCC2)cc1 (stereo not drawn) | -0.23 K
CS(=O)(=O)c1ccc(C(=O)N(Cc2ccccc2)c2ccccc2)cc1 | -0.08 K
NCCCCCCN | 0.02 K
Cc1noc(CN2CCN(c3ncnc4c3oc3ccccc34)CC2)n1 | -0.33 K
Cc1cc(C(=O)O)ncc1C#N | -0.08 K
Cc1cc(C(C)NCCCO)ccc1Br (stereo not drawn) | -0.23 K
CC(=O)NC12CC3CC(C1)CC(C(=O)NNC(=O)COc1ccccc1Cc1ccccc1)(C3)C2 | -0.22 K
Cc1csc(NC(=O)c2cc(S(=O)(=O)Nc3ccccc3C)ccc2C)n1 | 0.02 K
O=C(CSc1nnc(-c2ccccc2)o1)N(Cc1ccccc1)c1nc2c(s1)CCCC2 | -0.17 K
NC(=O)c1csc(C(=O)Oc2cccc(-n3cccn3)c2)c1 | -0.14 K
CC(C)c1ccc(-n2cc(O)c(C(=O)N(C)CC(=O)O)n2)cc1 | -0.05 K

SMILES | TSA(without NAD+) / Primary screening (TSA) / delta Tm (K)
COc1ncccc1CNC(=O)CN(C)c1ncnc2nc[nH]c12 | -0.04 K
COc1cc(C)ccc1OCC(=O)Nc1nc2c(s1)CN(C)CC2 | -0.02 K
CC(C)(CNc1cccc(F)c1[N+](=O)[O-])C(N)=O | -0.17 K
NC(=O)c1ccc(-c2nnn(CC(=O)Nc3ccccc3N3CCCC3)n2)cc1 | -0.13 K
O=C(O)c1cnc2[nH]c3ccccc3n2c1=O | -0.22 K
COC(=O)CC(C)C(=O)NCc1c(C)nc2c(c1C)c(=O)[nH]n2C (stereo not drawn) | -0.17 K
O=C(c1n[nH]c(=O)c2ccccc12)N1CCCC2(CCCCCC2)C1 | -0.02 K
CC1CN(c2ncnc3ccsc23)CCO1 (stereo not drawn) | -0.22 K
C[C@H](CCO)Nc1ccc(Br)cc1C#N | -0.13 K
Cc1csc2c(-n3cc([N+](=O)[O-])cn3)ncnc12 | -0.22 K
Cc1ccc2[nH]c(-c3cccs3)c(CCC(=O)O)c2c1 | -0.23 K
O=C(NCc1cccc(C(=O)NCc2ccco2)c1)Nc1nnc(C2CC2)s1 | 0.06 K
CCC(N)c1nnn[nH]1 (stereo not drawn) | -0.02 K
Cc1nn(-c2cccc(C(F)(F)F)c2)c2sc(C(=O)NC3CC3)cc12 | 0.05 K
CN(c1ccccc1)S(=O)(=O)c1cccc(NC(=O)CCCc2c[nH]c3ccccc23)c1 | 0.52 K
O=c1oc2ccc3ccccc3c2cc1-c1cn(-c2ccc(Br)cc2)c(S)n1 | -0.12 K
COC(=O)C[C@@H](C)OC(=O)c1ccc(F)cc1F | 0.02 K
FC(F)(F)c1nnc2ccc(NCC3CCOC3)nn12 (stereo not drawn) | -0.02 K
N#CCCn1cc(/C=C/C(=O)NC2CC2c2cccc(F)c2)c2ccccc21 (stereo not drawn) | -0.04 K
c1ccc(-c2cn(-c3nc(-c4cccnc4)nc4ccccc34)cn2)cc1 | -0.11 K
O=C(NC1CCOc2ccccc21)c1ccc2c(c1)NC(=O)C1CCCN21 (stereo not drawn) | -0.48 K
